In paper PMC6723090:
Results are given in words; binding and its absence hold for the method and conditions named. In cells and extracts the contact can be indirect. Here binding means that the protein was enriched with, or labelled near, the bait; the list need not be complete.

Molecular target: T1, synthetic CDR1 peptide … with N-terminal Biotin-[TTDS] linker (human)
T1 sequence (peptide, N-terminal Biotin-[TTDS] linker): ASGYTFTNYGLSWVR
Experiment: affinity purification with mass spectrometry; biotinylated peptide (80 ug) on streptavidin magnetic beads; 5 mg homogenized pig retina in PBS, 4 °C overnight; three PBS washes; elution at pH 2.0; in-solution trypsin digestion, LC-MS/MS; biotin-labeled beads as control; n = 3; only the target purified

mitochondrial serine protease HTRA2 of the porcine retina (enzyme)
binding: binds
